Laboratory results from US20180354988A1 (University of California, published 2018).
Positions count from the first letter of the chain named. Results are given in words; binding and its absence hold for the method and conditions named. Some entries that bind do so weakly or less than the wild type.

Sequences of proteins named here, by UniProt entry; tags and fusion partners are left off. A change or cut given only in a name is not applied to a line headed by its entry.
UniProt A8A705: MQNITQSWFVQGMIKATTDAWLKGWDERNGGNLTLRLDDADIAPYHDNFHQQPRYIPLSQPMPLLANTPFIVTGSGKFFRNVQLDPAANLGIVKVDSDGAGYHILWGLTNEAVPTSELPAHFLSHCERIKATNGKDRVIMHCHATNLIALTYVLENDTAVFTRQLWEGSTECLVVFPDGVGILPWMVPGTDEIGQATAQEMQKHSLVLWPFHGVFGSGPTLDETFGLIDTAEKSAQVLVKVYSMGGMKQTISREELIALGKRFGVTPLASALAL

How the values were obtained:
[1] = biological target: ^C18C98RhuA (Escherichia coli O9:H4 (strain HS)) (UniProt A8A705); assay: self-assembly, TEM
[2] = biological target: ^C22C98RhuA (Escherichia coli O9:H4 (strain HS)) (UniProt A8A705); assay: self-assembly, TEM

B1: ^C18C98RhuA (enzyme)
chain: MQNITQSWFVQGMIKATCDAWLKGWDERNGGNLTLRLDDADIAPYHDNFHQQPRYIPLSQPMPLLANTPFIVTGSGKFFRNVQLDPAANLGIVKVDSCGAGYHILWGLTNEAVPTSELPAHFLSHSERIKATNGKDRVIMHCHATNLIALTYVLENDTAVFTRQLWEGSTECLVVFPDGVGILPWMVPGTDAIGQATAQEMQKHSLVLWPFHGVFGSGPTLDETFGLIDTAEKSAQVLVKVYSMGGMKQTISREELIALGKRFGVTPLASALAL
binding [1]: binds

B2: ^C22C98RhuA (enzyme)
chain: B1 chain with C18T, L22C
binding [2]: binds
